Assay results reported in publication PMC11118514, “Eminent Antimicrobial Peptide Resistance in Zymomonas mobilis: A Novel Advantage of Intrinsically Uncoupled Energetics” (Antibiotics, 2024).

Assay: Langmuir-Blodgett compression isotherms of model membrane with peptides
Set-up: species or system Zymomonas mobilis
Conditions: Z. mobilis phospholipid model membrane + peptide, 30 ± 1 °C

SMILES: CC[C@H](C)[C@H](NC(=O)CNC(=O)[C@H](CCCCN)NC(=O)[C@H](Cc1ccc(O)cc1)NC(=O)[C@H](CS)NC(=O)[C@@H](NC(=O)[C@H](CCCCN)NC(=O)[C@H](Cc1ccccc1)NC(=O)[C@H](CS)NC(=O)[C@H](Cc1c[nH]c2ccccc12)NC(=O)[C@@H](N)CCCNC(=N)N)C(C)C)C(=O)N[C@@H](CS)C(=O)N[C@@H](Cc1ccc(O)cc1)C(=O)N[C@@H](CCCCN)C(=O)N[C@@H](CCCCN)C(=O)N[C@@H](CS)C(=O)N[C@@H](CCCCN)C(=O)O [RP556] (H-RWCFKVCYKGICYKKCK-OH; N-terminus and C-terminus assumed)
- Mma (limiting area per molecule, Aπ→0) (extrapolated from linear part of π-A isotherm (25–40 mN/m), membranes alone 70.6): 85.3 Å/molecule
- π Collapse (membranes alone 46.4): 45 mN/m

Where a SMILES comes first, the peptide text is derived from it.
